Reference: the supplement of paper PMC6414424
± gives the standard deviation of the averaged measurements. Some of the results follow.

The compounds below were run on APPdp1-6 iPSC-derived neurons (assay: pThr231Tau/total Tau ratio Z-score vs DMSO vehicle wells; higher = more pThr231Tau relative to total Tau). Settings: 5 µM; treatment time 5 days.

| Compound | pThr231Tau/total Tau ratio Z-score |
| --- | --- |
| CCC1=C(C)CN(C(=O)NCCc2ccc(S(=O)(=O)NC(=O)NC3CCC(C)CC3)cc2)C1=O (configuration not stated) [Prestw-651] | -0.835 ± 1.1 |
| CCn1nc(C(=O)O)c(=O)c2cc3c(cc21)OCO3 [Prestw-780] | 0.317 ± 0.036 |
| Cc1cc(/C=C/c2ccc3cc(N(C)C)ccc3[n+]2C)c(C)n1-c1ccccc1 [Prestw-1040] | -4.08 ± 0.057 |
| Cc1cc(/C=C/c2ccc3cc(N(C)C)ccc3[n+]2C)c(C)n1-c1ccccc1 [PYRVINIUM PAMOATE    Therap cat:  Anthelmintic (Nematodes)] | -4.6 ± 0.98 |
| CCCCNc1ccc(C(=O)OCCOCCOCCOCCOCCOCCOCCOCCOCCOC)cc1 [Prestw-12] | 0.0131 ± 0.96 |
| COCCOC(=O)C1=C(C)NC(C)=C(C(=O)OC/C=C/c2ccccc2)C1c1cccc([N+](=O)[O-])c1 (configuration not stated) [Prestw-1376] | 0.615 ± 0.28 |
| CN(C)CCOc1ccc(/C(=C(/CCCl)c2ccccc2)c2ccccc2)cc1 [Prestw-1197] | 0.501 ± 0.84 |
| CCN1CCN(C(=O)N[C@@H](C(=O)N[C@@H]2C(=O)N3C(C(=O)O)=C(CSc4nnnn4C)CS[C@H]23)c2ccc(O)cc2)C(=O)C1=O [Prestw-327] | 2.21 ± 1.2 |
| C=C1/C(=C\C=C2/CCC[C@]3(C)[C@@H]([C@H](C)/C=C/[C@@H](O)C4CC4)CC[C@@H]23)C[C@@H](O)C[C@@H]1O [Prestw-1257] | 0.564 ± 0.5 |
| Cc1ccc(Cl)c(Nc2ccccc2C(=O)O)c1Cl [Prestw-206] | 0.562 ± 0.14 |
| O=C(NCCO[N+](=O)[O-])c1cccnc1 [Prestw-106] | -0.176 ± 0.49 |
| COC(=O)Nc1nc2ccc(SC(C)C)cc2[nH]1 [Prestw-1080] | -4.58 ± 1.3 |
| CC(C(=O)O)c1ccc(N2Cc3ccccc3C2=O)cc1 (configuration not stated) [Prestw-836] | -0.313 ± 1.6 |
| CO[C@@]12[C@H](COC(N)=O)C3=C(C(=O)C(C)=C(N)C3=O)N1C[C@@H]1N[C@@H]12 | -0.336 ± 0.76 |
| Oc1ccc(OCc2ccccc2)cc1 [Prestw-912] | -1.3 ± 0.71 |
| C[C@H]1C[C@H]2[C@@H]3CCC4=CC(=O)C=C[C@]4(C)[C@@]3(F)[C@@H](O)C[C@]2(C)[C@@]1(O)C(=O)CO [Prestw-362] | -0.0793 ± 0.043 |
| Cc1nnc(NS(=O)(=O)c2ccc(N)cc2)s1 [Prestw-742] | -0.348 ± 0.62 |
| CCN1CCN(c2cc3c(cc2F)c(=O)c(C(=O)O)cn3C2CC2)CC1 [ENROFLOXACIN, antibacterial] | 0.726 ± 0.44 |
| CCN1CCC[C@H]1CNC(=O)c1c(OC)ccc(Br)c1OC [Prestw-971] | 0.14 ± 0.95 |

| Compound | pThr231Tau/total Tau ratio Z-score |
| --- | --- |
| COc1cc(NS(C)(=O)=O)ccc1Nc1c2ccccc2nc2ccccc12 [AMSACRINE, antineoplastic, immune suppressive] | -4.17 ± 1.1 |
| CC1CC(OC(=O)C(O)c2ccccc2)CC(C)(C)N1C (configuration not stated) | 0.387 ± 0.34 |
| CC1CC(OC(=O)C(O)c2ccccc2)CC(C)(C)N1C (configuration not stated) [Prestw-794] | 1.65 ± 1.7 |
| O=C1c2c(O)cccc2C(C2OC(CO)C(O)C(O)C2O)c2cc(CO)cc(O)c21 (configuration not stated) [ALOIN    cathartic, laxative ex aloe    J Chem Soc 1932:2573] | 0.671 ± 0.27 |
| Cc1cnc(NC(=O)C2=C(O)c3ccccc3S(=O)(=O)N2C)s1 [Prestw-369] | -0.928 ± 0.078 |
| CC1(C)O[C@@H]2C[C@H]3[C@@H]4CCC5=CC(=O)C=C[C@]5(C)[C@@]4(F)[C@@H](O)C[C@]3(C)[C@]2(C(=O)CO)O1 [TRIAMCINOLONE ACETONIDE    Therap cat: antiinflammation] | 0.971 ± 1.2 |
| OC1(c2ccc(Cl)c(C(F)(F)F)c2)CCN(CCCC(c2ccc(F)cc2)c2ccc(F)cc2)CC1 [PENFLURIDOL, antipsychotic] | -0.486 ± 0.96 |
| O=C(O)COC(=O)Cc1ccccc1Nc1c(Cl)cccc1Cl [Prestw-175] | -0.774 ± 1 |
| O=c1oc2ccccc2c(O)c1Cc1c(O)c2ccccc2oc1=O [Prestw-785] | 0.76 ± 1.5 |
| CN1CCN(CCCN2c3ccccc3Sc3ccc(Cl)cc32)CC1 [Prestw-399] | -1.26 ± 1.2 |
| Nc1nc(=S)c2[nH]cnc2[nH]1 | 0.0544 ± 1.1 |
| CN1CCN(c2c(F)cc3c(=O)c(C(=O)O)cn(CCF)c3c2F)CC1 [Prestw-1414] | -1.05 ± 0.74 |
| C[C@H](CCC(=O)O)[C@H]1CC[C@H]2[C@@H]3[C@H](O)C[C@@H]4C[C@H](O)CC[C@]4(C)[C@H]3CC[C@]12C [Prestw-285] | -0.569 ± 0.17 |
| NCC(O)CC(=O)O (configuration not stated) [AMINOHYDROXYBUTYRIC ACID    Therap cat: antiepileptic] | 1.49 ± 0.057 |
| CC(=O)OCC(CCn1cnc2cnc(N)nc21)COC(C)=O [Prestw-1249] | -0.937 ± 0.0037 |
| NNc1nncc2ccccc12 [Prestw-169] | -0.0268 ± 0.2 |
| C1CNCCN1 [PIPERAZINE    Therap cat: anthelmintic (Nematodes)] | 0.471 ± 1.3 |
| COc1c2occc2c(OC)c2c(=O)cc(C)oc12 [Prestw-91] | -0.927 ± 0.92 |

Copied from the list:
pThr231Tau/total Tau ratio Z-score, OC1(c2ccc(Cl)c(C(F)(F)F)c2)CCN(CCCC(c2ccc(F)cc2)c2ccc(F)cc2)CC1 [PENFLURIDOL, antipsychotic] is entered as -0.486 ± 0.96
pThr231Tau/total Tau ratio Z-score, CC1(C)O[C@@H]2C[C@H]3[C@@H]4CCC5=CC(=O)C=C[C@]5(C)[C@@]4(F)[C@@H](O)C[C@]3(C)[C@]2(C(=O)CO)O1 [TRIAMCINOLONE ACETONIDE    Therap cat: antiinflammation] is entered as 0.971 ± 1.2
